Assay results reported in patent US20090274670A1.
No constants are given. Whether binding was seen depends on the method and setting. Binding seen in cells or lysates may run through a third protein. Some entries that bind do so weakly or less than the wild type. Sequences can lack the tags named with a protein.

Tests used:
[1] = biological target: T1, Dph1 protein fused to a myc tag (mouse dph1 in pcDNA3.1(-)/myc-His A, pcDNA-Dph1-myc) (mouse) (UniProt Q5NCQ5); assay: co-immunoprecipitation: anti-myc IP of lysate of 293T cells with Dph1-myc and Dph2(C)-TAP, anti-TAP Western blot
T1 sequence (looked up): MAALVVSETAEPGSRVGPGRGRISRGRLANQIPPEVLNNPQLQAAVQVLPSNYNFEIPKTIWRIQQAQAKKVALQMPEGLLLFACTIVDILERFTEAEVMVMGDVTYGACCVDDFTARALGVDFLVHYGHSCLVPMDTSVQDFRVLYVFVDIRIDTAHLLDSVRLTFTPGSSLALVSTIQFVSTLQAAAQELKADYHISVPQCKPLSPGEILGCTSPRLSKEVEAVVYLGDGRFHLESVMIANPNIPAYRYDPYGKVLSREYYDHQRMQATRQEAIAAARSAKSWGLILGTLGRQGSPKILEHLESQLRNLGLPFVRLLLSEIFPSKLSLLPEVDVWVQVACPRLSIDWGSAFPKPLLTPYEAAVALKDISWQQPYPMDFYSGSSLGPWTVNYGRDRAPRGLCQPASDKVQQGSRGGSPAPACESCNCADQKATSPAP

[2] = biological target: T1, Dph1 protein fused to a myc tag (mouse dph1 in pcDNA3.1(-)/myc-His A, pcDNA-Dph1-myc) (mouse); assay: co-immunoprecipitation: anti-myc IP, anti-TAP Western blot (FIG. 9, lane 2)

B1: TAP-tagged Dph2(C-) (hamster Dph2 C-terminal deletion mutant, pNC-Dph2(C-)-TAP) (protein, not shown: small tags and cut ends)
chain: MESTFSSPAEAALQREAGVPGLFTPPEDLDRVYELERVTKFVCDLGCQRVALQFPDQLLGDAGAVAVRLEEVTGSKMFILGDTAYGSCCVDVLGAEQAGAEALVHFGPACLSPPASLLPITFVLGQRSVALELCAKAFEARNPDPTAPVVLLSEPACAHALEALATLLRPKYQDLLISSPALPLPVGSPSSQPEPLERFGRRFPLSPGRCLEEYGAFYVGGSQASSDPVLDPDLSRLLLGWTPGRPFISCCPDTGQTQDQGVQAGRLRARRLYLIERARDAHVVGLLAGTLGVAQHREALAHLRKLTEAAGKRSYVLALGRPTPAKLANFPEMDIFVLLACPLGALAPQPSGGFFRPILTPCELEAACNPAWPPPGLAPHLTHYAELLPGSPFYVPLP
binding [1]: binds | binding [2]: binds
